Literature values as cited in US20050129719A1, “Concentrated emulsion formulation for silatecan” (priority 2003, published 2005).

For `CC(=O)O[C@H]1C(=O)[C@@]2(C)[C@H]([C@H](OC(=O)c3ccccc3)[C@]3(O)C[C@H](OC(=O)[C@H](O)[C@@H](NC(=O)c4ccccc4)c4ccccc4)C(C)=C1C3(C)C)[C@]1(OC(C)=O)CO[C@@H]1C[C@@H]2O` [Paclitaxel, paclitaxel], the solubility in water is listed as “less than 1 μg/mL”.
